Publication doi:10.1101/2023.08.11.553045
These are yes or no findings as the source states them, for the method shown. In cells and extracts the contact can be indirect. Some binding calls cover weakened binding; strength is not graded here. Where a sequence is shown, tags or fusion partners need not be part of it.

Protein sequences, listed by entry. Tags and fused reporters are not part of them. Lines headed by an entry give the natural chain unless they say otherwise; changes in a name come on top.
UniProt Q86WV6, whole entry: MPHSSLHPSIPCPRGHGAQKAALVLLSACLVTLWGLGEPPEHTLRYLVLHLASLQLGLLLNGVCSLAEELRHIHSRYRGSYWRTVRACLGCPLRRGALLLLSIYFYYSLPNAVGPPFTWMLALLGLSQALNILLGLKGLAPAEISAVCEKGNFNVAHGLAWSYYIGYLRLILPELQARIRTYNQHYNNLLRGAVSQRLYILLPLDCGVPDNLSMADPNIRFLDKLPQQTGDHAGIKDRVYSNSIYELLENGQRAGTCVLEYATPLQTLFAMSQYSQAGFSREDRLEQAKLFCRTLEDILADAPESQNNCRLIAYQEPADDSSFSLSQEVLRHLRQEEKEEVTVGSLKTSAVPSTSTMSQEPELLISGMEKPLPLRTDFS

B1: TBK1-FLAG (enzyme, UniProt Q9UHD2 1-729)
chain: MQSTSNHLWLLSDILGQGATANVFRGRHKKTGDLFAIKVFNNISFLRPVDVQMREFEVLKKLNHKNIVKLFAIEEETTTRHKVLIMEFCPCGSLYTVLEEPSNAYGLPESEFLIVLRDVVGGMNHLRENGIVHRDIKPGNIMRVIGEDGQSVYKLTDFGAARELEDDEQFVSLYGTEEYLHPDMYERAVLRKDHQKKYGATVDLWSIGVTFYHAATGSLPFRPFEGPRRNKEVMYKIITGKPSGAISGVQKAENGPIDWSGDMPVSCSLSRGLQVLLTPVLANILEADQEKCWGFDQFFAETSDILHRMVIHVFSLQQMTAHKIYIHSYNTATIFHELVYKQTKIISSNQELIYEGRRLVLEPGRLAQHFPKTTEENPIFVVSREPLNTIGLIYEKISLPKVHPRYDLDGDASMAKAITGVVCYACRIASTLLLYQELMRKGIRWLIELIKDDYNETVHKKTEVVITLDFCIRNIEKTVKVYEKLMKINLEAAELGEISDIHTKLLRLSSSQGTIETSLQDIDSRLSPGGSLADAWAHQEGTHPKDRNVEKLQVLLNCMTEIYYQFKKDKAERRLAYNEEQIHKFDKQKLYYHATKAMTHFTDECVKKYEAFLNKSEEWIRKMLHLRKQLLSLTNQCFDIEEEVSKYQEYTNELQETLPQKMFTASSGIKHTMTPIYPSSNTLVEMTLGMKKLKEEMEGVVKELAENNHILERFGSLTMDGGLRNVDCL
B2: TBK1-FLAG, Q9UHD2 1-729 (enzyme)
chain: B1 chain

Assays:
[1] = molecular target: HA-tagged STING-C64S (human) (UniProt Q86WV6); assay: co-IP
[2] = molecular target: HA-tagged WT-STING (human), Q86WV6; assay: co-IP; conditions: remark: other sources report otherwise

Row | Binder | binding [1] | binding [2]
1 | B1 | binds | –
2 | B2 | – | binds
